Assay results from article PMC7413564, “Phase separation of Arabidopsis EMB1579 controls transcription, mRNA splicing, and development” (PLoS Biology, 2020).
No constants are given. Whether binding was seen depends on the method and setting. Binding seen in cells or lysates may run through a third protein. Here binding means that the protein was enriched with, or labelled near, the bait; the list need not be complete. Sequences can lack the tags named with a protein. Each block holds one binder with its values, some of them ahead of it.

Biological target: T1, recombinant EMB1579-6×His protein (Arabidopsis thaliana) (UniProt F4IS91)
T1 sequence: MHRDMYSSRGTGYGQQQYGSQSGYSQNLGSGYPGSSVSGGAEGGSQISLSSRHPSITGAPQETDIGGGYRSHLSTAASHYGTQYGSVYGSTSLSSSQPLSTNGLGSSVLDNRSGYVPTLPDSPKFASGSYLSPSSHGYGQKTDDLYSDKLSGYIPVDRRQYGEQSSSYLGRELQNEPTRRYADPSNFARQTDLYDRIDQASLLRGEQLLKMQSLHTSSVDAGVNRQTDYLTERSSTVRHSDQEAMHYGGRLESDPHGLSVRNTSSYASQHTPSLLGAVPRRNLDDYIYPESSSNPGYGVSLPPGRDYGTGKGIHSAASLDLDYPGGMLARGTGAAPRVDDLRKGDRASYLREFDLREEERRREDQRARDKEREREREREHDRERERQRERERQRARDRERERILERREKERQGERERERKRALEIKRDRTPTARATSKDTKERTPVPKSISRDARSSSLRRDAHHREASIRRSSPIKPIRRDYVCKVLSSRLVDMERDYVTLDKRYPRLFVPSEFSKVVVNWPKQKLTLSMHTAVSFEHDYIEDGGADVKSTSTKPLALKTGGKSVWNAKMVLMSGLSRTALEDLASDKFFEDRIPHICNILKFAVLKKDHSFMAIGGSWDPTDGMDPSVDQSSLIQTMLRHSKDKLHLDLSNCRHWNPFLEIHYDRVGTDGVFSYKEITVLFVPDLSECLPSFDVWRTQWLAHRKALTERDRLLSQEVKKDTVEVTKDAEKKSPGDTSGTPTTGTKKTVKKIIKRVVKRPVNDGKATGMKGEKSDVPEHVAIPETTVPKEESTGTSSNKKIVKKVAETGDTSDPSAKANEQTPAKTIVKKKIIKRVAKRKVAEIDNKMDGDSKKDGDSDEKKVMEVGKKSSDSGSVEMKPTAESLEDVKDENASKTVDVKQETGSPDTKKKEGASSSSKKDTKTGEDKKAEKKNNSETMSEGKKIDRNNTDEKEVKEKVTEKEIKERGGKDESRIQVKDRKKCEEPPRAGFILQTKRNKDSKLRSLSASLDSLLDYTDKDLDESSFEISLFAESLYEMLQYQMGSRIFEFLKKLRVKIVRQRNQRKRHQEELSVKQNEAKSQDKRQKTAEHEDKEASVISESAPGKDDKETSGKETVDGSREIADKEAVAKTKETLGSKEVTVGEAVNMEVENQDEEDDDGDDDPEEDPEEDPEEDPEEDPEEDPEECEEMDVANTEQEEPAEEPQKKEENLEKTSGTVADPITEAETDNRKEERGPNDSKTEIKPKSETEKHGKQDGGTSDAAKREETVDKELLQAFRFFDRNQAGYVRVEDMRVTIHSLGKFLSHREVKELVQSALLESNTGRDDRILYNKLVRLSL
Assay: affinity purification with mass spectrometry; EMB1579-6×His bound to Ni-NTA beads, incubated 2 hours on ice with total extract of WT Arabidopsis roots dialysed into P buffer (25 mM Tris-HCl pH 8.0, 50 mM KCl, 2 mM DTT); bands cut from a silver-stained gel; Ni-NTA beads as control; only the target purified

binding: binds
B1: MULTIPLE SUPPRESSOR OF IRA 4 (MSI4) (protein, UniProt O22607 1-507)
chain: MESDEAAAVSPQATTPSGGTGASGPKKRGRKPKTKEDSQTPSSQQQSDVKMKESGKKTQQSPSVDEKYSQWKGLVPILYDWLANHNLVWPSLSCRWGPQLEQATYKNRQRLYLSEQTDGSVPNTLVIANCEVVKPRVAAAEHISQFNEEARSPFVKKYKTIIHPGEVNRIRELPQNSKIVATHTDSPDVLIWDVETQPNRHAVLGAANSRPDLILTGHQDNAEFALAMCPTEPFVLSGGKDKSVVLWSIQDHITTIGTDSKSSGSIIKQTGEGTDKNESPTVGPRGVYHGHEDTVEDVAFSPTSAQEFCSVGDDSCLILWDARTGTNPVTKVEKAHDADLHCVDWNPHDDNLILTGSADNTVRLFDRRKLTANGVGSPIYKFEGHKAAVLCVQWSPDKSSVFGSSAEDGLLNIWDYDRVSKKSDRAAKSPAGLFFQHAGHRDKVVDFHWNASDPWTIVSVSDDCETTGGGGTLQIWRMSDLIYRPEEEVVAELEKFKSHVMTCASKP

binding: binds
B2: DDB1A (protein, UniProt Q9M0V3 1-1088)
chain: MSSWNYVVTAHKPTSVTHSCVGNFTSPQELNLIVAKCTRIEIHLLTPQGLQPMLDVPIYGRIATLELFRPHGEAQDFLFIATERYKFCVLQWDPESSELITRAMGDVSDRIGRPTDNGQIGIIDPDCRLIGLHLYDGLFKVIPFDNKGQLKEAFNIRLEELQVLDIKFLFGCAKPTIAVLYQDNKDARHVKTYEVSLKDKDFVEGPWSQNSLDNGADLLIPVPPPLCGVLIIGEETIVYCSASAFKAIPIRPSITKAYGRVDVDGSRYLLGDHAGMIHLLVITHEKEKVTGLKIELLGETSIASTISYLDNAVVFVGSSYGDSQLVKLNLHPDAKGSYVEVLERYINLGPIVDFCVVDLERQGQGQVVTCSGAFKDGSLRVVRNGIGINEQASVELQGIKGMWSLKSSIDEAFDTFLVVSFISETRILAMNLEDELEETEIEGFLSQVQTLFCHDAVYNQLVQVTSNSVRLVSSTTRELRDEWHAPAGFTVNVATANASQVLLATGGGHLVYLEIGDGKLTEVQHALLEYEVSCLDINPIGDNPNYSQLAAVGMWTDISVRIFSLPELTLITKEQLGGEIIPRSVLLCAFEGISYLLCALGDGHLLNFQMDTTTGQLKDRKKVSLGTQPITLRTFSSKSATHVFAASDRPTVIYSSNKKLLYSNVNLKEVSHMCPFNSAAFPDSLAIAREGELTIGTIDDIQKLHIRTIPLGEHARRICHQEQTRTFGICSLGNQSNSEESEMHFVRLLDDQTFEFMSTYPLDSFEYGCSILSCSFTEDKNVYYCVGTAYVLPEENEPTKGRILVFIVEDGRLQLIAEKETKGAVYSLNAFNGKLLAAINQKIQLYKWMLRDDGTRELQSECGHHGHILALYVQTRGDFIVVGDLMKSISLLLYKHEEGAIEERARDYNANWMSAVEILDDDIYLGAENNFNLLTVKKNSEGATDEERGRLEVVGEYHLGEFVNRFRHGSLVMRLPDSEIGQIPTVIFGTVNGVIGVIASLPQEQYTFLEKLQSSLRKVIKGVGGLSHEQWRSFNNEKRTAEARNFLDGDLIESFLDLSRNKMEDISKSMNVQVEELCKRVEELTRLH
